Data from PMC5081413.
These are yes or no findings as the source states them, for the method shown. Some binding calls cover weakened binding; strength is not graded here.

Sequences of proteins named here, by UniProt entry; tags and fusion partners are left off. A change or cut given only in a name is not applied to a line headed by its entry. Residues count along the entry.
UniProt P62330: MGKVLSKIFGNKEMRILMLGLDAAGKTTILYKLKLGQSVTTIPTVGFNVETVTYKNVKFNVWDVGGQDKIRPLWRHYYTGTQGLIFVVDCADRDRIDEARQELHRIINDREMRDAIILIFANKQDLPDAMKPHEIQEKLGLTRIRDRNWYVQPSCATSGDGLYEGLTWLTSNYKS
UniProt P84077: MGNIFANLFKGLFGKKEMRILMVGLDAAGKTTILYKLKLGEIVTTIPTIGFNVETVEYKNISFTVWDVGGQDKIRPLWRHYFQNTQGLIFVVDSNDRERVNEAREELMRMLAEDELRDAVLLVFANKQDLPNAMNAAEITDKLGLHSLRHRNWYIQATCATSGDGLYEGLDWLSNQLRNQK
UniProt Q7DB50, residues 31-381: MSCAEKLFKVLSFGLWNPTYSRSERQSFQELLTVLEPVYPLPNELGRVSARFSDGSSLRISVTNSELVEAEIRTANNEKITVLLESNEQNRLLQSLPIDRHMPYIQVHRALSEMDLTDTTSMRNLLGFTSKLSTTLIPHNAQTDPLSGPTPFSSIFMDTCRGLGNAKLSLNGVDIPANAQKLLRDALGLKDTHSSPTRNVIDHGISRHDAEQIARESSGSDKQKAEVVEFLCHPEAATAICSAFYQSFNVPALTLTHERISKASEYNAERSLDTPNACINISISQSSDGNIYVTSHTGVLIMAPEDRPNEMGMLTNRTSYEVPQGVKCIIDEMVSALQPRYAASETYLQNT

Experiments:
[1] = molecular target: recombinant myristoylated Arf6 activated with GTPγS (UniProt P62330); test: pull-down; both purified
[2] = molecular target: constitutively active GTP-bound myristoylated Arf1-Q71L (UniProt P84077); test: pull-down; both purified

Substance: EspG wild-type, recombinant (effector domain residues 48-398) (from UniProt Q7DB50 31-381) (domain or fragment)
- binding [1]: binds
- binding [2]: binds
